Consider one substance from publication PMC11677236.

The chains behind the UniProt entries cited, without tags or fusion partners.
UniProt P14618: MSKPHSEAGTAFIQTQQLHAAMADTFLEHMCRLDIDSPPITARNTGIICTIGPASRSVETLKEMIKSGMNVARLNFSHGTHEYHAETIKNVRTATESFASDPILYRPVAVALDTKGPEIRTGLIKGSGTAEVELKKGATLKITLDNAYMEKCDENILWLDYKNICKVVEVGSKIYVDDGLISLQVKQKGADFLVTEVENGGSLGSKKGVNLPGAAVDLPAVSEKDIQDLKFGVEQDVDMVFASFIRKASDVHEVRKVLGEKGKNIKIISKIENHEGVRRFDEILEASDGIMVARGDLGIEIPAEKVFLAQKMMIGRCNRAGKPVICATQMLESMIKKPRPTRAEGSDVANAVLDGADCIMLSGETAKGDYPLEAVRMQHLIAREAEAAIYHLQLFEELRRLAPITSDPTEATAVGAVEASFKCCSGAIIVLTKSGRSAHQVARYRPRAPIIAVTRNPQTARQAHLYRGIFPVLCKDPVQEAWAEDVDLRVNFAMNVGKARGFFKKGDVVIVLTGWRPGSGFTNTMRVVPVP

These are yes or no findings as the source states them, for the method shown. In cells and extracts the contact can be indirect. These calls come from enrichment with a bait or labelling near it, and not all partners need be listed.

This test addresses T1, TIPE (TNFAIP8, tumor necrosis factor alpha-induced protein 8), endogenous (human (endogenous in A375 and G361)) (UniProt O95379).
T1 sequence: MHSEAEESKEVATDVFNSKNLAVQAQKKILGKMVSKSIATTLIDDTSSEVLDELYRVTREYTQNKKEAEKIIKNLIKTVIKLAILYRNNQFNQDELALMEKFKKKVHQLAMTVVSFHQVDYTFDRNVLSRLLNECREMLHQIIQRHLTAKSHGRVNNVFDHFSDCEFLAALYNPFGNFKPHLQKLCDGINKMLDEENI
The test can be described thus: affinity purification with mass spectrometry; Co-IP/MS in A375 cells with the TIPE antibody as bait; beads washed, eluted, gel stained with Coomassie, bands digested with chymotrypsin, LC-MS/MS.

Consider “pyruvate kinase M2 (PKM2), endogenous (from UniProt P14618 1-531) (enzyme)”, for which the binding entry is listed as “binds”.
